Assay [1] addresses T1, Heme oxygenase-1 (mouse (endogenous in primary alveolar macrophages of BALB/c mice)) (UniProt P14901).
T1 sequence: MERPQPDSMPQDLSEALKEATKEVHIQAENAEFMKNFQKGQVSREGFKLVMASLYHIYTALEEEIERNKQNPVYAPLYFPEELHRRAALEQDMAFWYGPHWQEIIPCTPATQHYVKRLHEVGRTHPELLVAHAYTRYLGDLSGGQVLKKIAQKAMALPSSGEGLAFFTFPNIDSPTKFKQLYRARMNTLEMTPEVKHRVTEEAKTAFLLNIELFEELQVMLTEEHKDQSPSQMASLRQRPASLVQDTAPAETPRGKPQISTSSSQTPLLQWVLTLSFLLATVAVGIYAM
The experiment in a line: co-IP; the same co-IP (anti-Cav-1, blot anti-HO-1) read for the synthetic AP-CSD peptide given to the living alveolar macrophages for 6 h before LPS and hemin; loss of the HO-1/Cav-1 co-precipitate is the read-out; only the binder purified.

Assay [2] concerns the target T2, Caveolin-1 (mouse (endogenous in primary alveolar macrophages of BALB/c mice)) (UniProt P49817).
T2 sequence: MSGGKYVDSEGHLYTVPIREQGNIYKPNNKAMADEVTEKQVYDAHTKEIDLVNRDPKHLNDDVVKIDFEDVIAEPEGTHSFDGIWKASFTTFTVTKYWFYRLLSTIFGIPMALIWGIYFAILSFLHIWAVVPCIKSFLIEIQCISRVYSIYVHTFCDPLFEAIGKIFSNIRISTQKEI
The experiment in a line: co-IP; RIPA lysates of primary mouse alveolar macrophages, immunoprecipitated with anti-Cav-1 (protein A/G magnetic beads, 4 °C), immunoblotted with anti-HO-1; cells pretreated for 6 h with or without CSD peptides, then LPS and hemin for 16 h. (A western blot detects proteins with antibodies after separation by electrophoresis.)

These are yes or no findings as the source states them, for the method shown. In cells and extracts the contact can be indirect. Some results given as binding are weak or reduced against the parent protein; the word gives no strength. For some assays here: Where a sequence is shown, tags or fusion partners need not be part of it.

B1: Caveolin-1 scaffolding domain peptide fused to the C-terminus of the Antennapedia internalization sequence (peptide)
peptide: RQIKIWFQNRRMKWKKDGIWKASFTTFTVTKYWFYR
Take B1: in assay [1], the binding result is on record as “binds”.

B2: Heme oxygenase-1 (enzyme, UniProt P14901 1-289)
chain: T1 sequence
On to B2, for which the binding result in assay [2] is reported as “binds”.
